# In article PMC8754131:
# Sequences of proteins named here, by UniProt entry; tags and fusion partners are left off. Residues count along the entry.
# UniProt P0A7G6: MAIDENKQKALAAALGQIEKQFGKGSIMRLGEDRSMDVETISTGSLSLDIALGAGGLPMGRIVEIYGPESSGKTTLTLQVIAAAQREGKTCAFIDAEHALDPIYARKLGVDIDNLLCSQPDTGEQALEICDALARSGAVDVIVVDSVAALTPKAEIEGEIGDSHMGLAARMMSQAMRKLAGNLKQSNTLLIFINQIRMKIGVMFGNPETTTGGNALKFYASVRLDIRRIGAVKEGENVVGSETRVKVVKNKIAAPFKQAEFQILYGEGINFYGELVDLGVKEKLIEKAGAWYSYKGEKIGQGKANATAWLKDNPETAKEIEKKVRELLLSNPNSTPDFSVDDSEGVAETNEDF
# UniProt P59665, residues 65-94: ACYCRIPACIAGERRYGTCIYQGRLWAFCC
# Results are given in words; binding and its absence hold for the method and conditions named. Binding seen in cells or lysates may run through a third protein. Some entries that bind do so weakly or less than the wild type.
# Target: RecA (E. coli (endogenous in E. coli strain XPX-1)) (UniProt P0A7G6)
# Assay: co-IP; RecA immunoprecipitated with an anti-RecA antibody from XPX-1 proteins collected at different time points after IPTG induction; Western blot with an anti-HNP-1 antibody
substance,measurement,value
Human neutrophil peptide-1 (HNP-1) (from UniProt P59665 65-94),binding,binds
